In PubChem BioAssay AID1487 (National Center for Advancing Translational Sciences (NCATS), 2009):
“And” between values parts separate entries of the source, which are not always exact repeats. Equal values may be shown once. The list shows a part of the results. Further columns of the screen follow, without active or inactive calls. Compounds called inactive in the main read-out are mostly missing here. Words in brackets tell the shape of the fitted curve; partial curves, single points and poor fits give uncertain potencies.

Experiment: qHTS Assay for Modulators of Lamin A Splicing
Settings: HeLa LMNA splicing GFP/RFP minigene ratio, 48 h
Summary of the method: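 S3 HeLa stable clones carrying a lamin A-EGFP splicing minigene plus DsRed2 were seeded at 600 cells/well in Opti-MEM with 2% FBS, pin-dosed and incubated 48 h at 37°C. Acumen cytometry (488 nm) gave the GFP/RFP total-intensity ratio.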

[1] = measured here: GFP splicing reporter channel
[2] = measured here: RFP viability control channel

Row | SMILES | AC50 [1] | AC50 [2]
1 | NC(=O)c1ccccc1NC(=O)Nc1cccc(Cl)c1Cl | 3.98 µM [rising, full curve] | 14.1 µM [rising, partial curve]
2 | CC1=CC(C)(C)N(S(=O)(=O)c2ccc(F)cc2)c2ccccc21 | – | 20 µM [rising, single point]
3 | Cn1ccnc1Sc1ccc(C(N)=O)cc1[N+](=O)[O-] | – | 0.562 µM [rising, full curve, poor fit]
4 | Cc1cc(C(=O)OCn2nnc3ccccc3c2=O)c(C)n1-c1ccccc1 | – | 31.6 µM [rising, single point]
5 | COC(=O)c1ccccc1NC(=O)CSc1nc2ccccc2nc1Cc1ccccc1OC | – | 0.708 µM [falling, full curve, poor fit]
6 | CS(=O)(=O)Nc1cccc(-c2ccc3ncnc(Nc4ccccc4)c3c2)c1 | 12.6 µM [falling, partial curve] | 12.6 µM [falling, partial curve]
7 | COc1cc(OC)cc(C(=O)Nc2nnc(NC(=S)Nc3ccccc3)s2)c1 | – | 0.0355 µM [falling, full curve, poor fit]
8 | COC(=O)C1=C(C)N(Cc2ccccc2)C(=O)N[C@H]1c1ccccc1 | 0.00447 µM [falling, full curve, poor fit] | 0.00631 µM [falling, full curve, poor fit]
9 | Cc1cc2c(N=O)c(NO)ccc2[nH]1 | 12.6 µM [falling, single point] | 8.91 µM [falling, partial curve]
10 | CC1CCN(C(=O)CCc2ccc(S(=O)(=O)NC(C)C)cc2)CC1 | 35.5 µM [rising, single point] | –
11 | CCOc1ccc(/C(O)=C/C(=O)C(=O)Nc2ccc(S(=O)(=O)NC(C)=O)cc2)cc1 | – | 0.708 µM [rising, single point]
12 | CCOC(=O)C(=CNc1ccccc1N1CCOCC1)C(=O)OCC | – | 1 µM [falling, partial curve, poor fit]
13 | CC(=O)Nc1cc(OC(C)=O)c2nonc2c1OC(C)=O | 11.2 µM [falling, partial curve] | 8.91 µM [falling, partial curve]
14 | O=C(NCCNS(=O)(=O)c1ccccc1Cl)c1cc(OCC(F)(F)F)ccc1OCC(F)(F)F | 4.47 µM [rising, partial curve] | –
15 | COc1ccc(NC(=O)CSc2nc3ccccc3n2-c2ccccc2)c([N+](=O)[O-])c1 | – | 12.6 µM [rising, partial curve]
16 | COc1ccc(CCN2CCC(Nc3nc4ccccc4n3Cc3ccc(F)cc3)CC2)cc1 | 4.47 µM [falling, partial curve, poor fit] and 22.4 µM [falling, partial curve, poor fit] | 7.94 µM [falling, single point] and 35.5 µM [falling, single point] and 12.6 µM [rising, partial curve]
17 | CCCCOC(=O)C1=C(C)Nc2ncnn2C1c1cccc(OC)c1 (configuration not stated) | 10 µM [rising, partial curve, poor fit] | 12.6 µM [rising, partial curve]

Row | SMILES | AC50 [1] | AC50 [2]
18 | CCCCn1c(-c2csc3c2CCC(C)C3)n[nH]c1=S (configuration not stated) | 4.47 µM [rising, partial curve] | 12.6 µM [rising, partial curve]
19 | CCOC(=O)c1c(C)[nH]c(C)c1S(=O)(=O)N1CCC(C(=O)N2CCN(c3ccccc3F)CC2)CC1 | 25.1 µM [rising, single point] | 12.6 µM [rising, single point]
20 | CC(C)CCNC(=O)c1c[nH]c2ccc(S(=O)(=O)N3CCC4(CC3)OCCO4)cc2c1=O | 12.6 µM [rising, single point] | –
21 | COc1ccc(S(=O)(=O)NCC(=O)N(CC(=O)NCC2CCCO2)c2c(C)cccc2C)cc1 (configuration not stated) | – | 7.08 µM [rising, partial curve, poor fit]
22 | COc1cccc(Cn2c(=O)c(-c3ccc(F)cc3)nc3cncnc32)c1 | 20 µM [falling, partial curve] | 20 µM [falling, partial curve]
23 | CCC(C)NC(=O)CSc1nc2n[nH]c(C)c2c(=N)n1-c1ccc(OC)cc1 (configuration not stated) | – | 10 µM [rising, partial curve, poor fit]
24 | CCNC(=O)[C@H]1O[C@@H](n2cnc3c(N)nc(NCCc4ccc(CCC(=O)O)cc4)nc32)[C@H](O)[C@H]1O | 0.00447 µM [falling, full curve, poor fit] | –
25 | O=C1c2ccccc2C(O)N1Cc1ccccc1Cl (configuration not stated) | – | 12.6 µM [rising, partial curve]
26 | Cc1ccccc1-c1ccc2ncnc(NC3CC3)c2c1 | 11.2 µM [falling, partial curve] | 11.2 µM [falling, partial curve]
27 | CCC(C)N1C(=O)S/C(=C/c2ccc(Sc3nc4ccccc4[nH]3)o2)C1=O (configuration not stated) | 7.94 µM [falling, partial curve] | 17.8 µM [falling, single point]
28 | CC(=O)c1ccc(N2CCN(c3ccc(NC(=O)c4ccc(F)cc4)cc3C(=O)O)CC2)cc1 | – | 2.51 µM [falling, partial curve, poor fit]
29 | C=CCn1c(NC(=O)c2ccc(C)cc2)c(C#N)sc1=N | – | 1.26 µM [falling, full curve]
30 | Cc1ccc(OCCSc2nc(NC(C)C)nc(NC(C)C)n2)cc1 | 22.4 µM [rising, single point] | 35.5 µM [rising, single point]
31 | CCCOc1ccc(/C=c2\sc3ncnn3c2=O)cc1 | 3.16 µM [rising, single point] | –
32 | O=C(NCCNCC(O)COc1ccc(O)cc1)N1CCOCC1 (configuration not stated) | 11.2 µM [rising, partial curve, poor fit] | 8.91 µM [rising, partial curve, poor fit]
33 | O=C(Nc1ccc(S(=O)(=O)N2CCc3ccccc32)cc1)c1ccc2c(c1)OCO2 | – | 14.1 µM [rising, partial curve]

In a second layout: 9 of the compounds above.

| Row | SMILES | AC50 [1] | AC50 [2] |
| --- | --- | --- | --- |
| 21 | COc1ccc(S(=O)(=O)NCC(=O)N(CC(=O)NCC2CCCO2)c2c(C)cccc2C)cc1 (configuration not stated) | – | 7.08 µM [rising, partial curve, poor fit] |
| 22 | COc1cccc(Cn2c(=O)c(-c3ccc(F)cc3)nc3cncnc32)c1 | 20 µM [falling, partial curve] | 20 µM [falling, partial curve] |
| 23 | CCC(C)NC(=O)CSc1nc2n[nH]c(C)c2c(=N)n1-c1ccc(OC)cc1 (configuration not stated) | – | 10 µM [rising, partial curve, poor fit] |
| 25 | O=C1c2ccccc2C(O)N1Cc1ccccc1Cl (configuration not stated) | – | 12.6 µM [rising, partial curve] |
| 26 | Cc1ccccc1-c1ccc2ncnc(NC3CC3)c2c1 | 11.2 µM [falling, partial curve] | 11.2 µM [falling, partial curve] |
| 28 | CC(=O)c1ccc(N2CCN(c3ccc(NC(=O)c4ccc(F)cc4)cc3C(=O)O)CC2)cc1 | – | 2.51 µM [falling, partial curve, poor fit] |
| 29 | C=CCn1c(NC(=O)c2ccc(C)cc2)c(C#N)sc1=N | – | 1.26 µM [falling, full curve] |
| 30 | Cc1ccc(OCCSc2nc(NC(C)C)nc(NC(C)C)n2)cc1 | 22.4 µM [rising, single point] | 35.5 µM [rising, single point] |
| 32 | O=C(NCCNCC(O)COc1ccc(O)cc1)N1CCOCC1 (configuration not stated) | 11.2 µM [rising, partial curve, poor fit] | 8.91 µM [rising, partial curve, poor fit] |
